Experimental data taken from patent publication US20240277865A1 (ACADEMIA SINICA, published 2024).
Results are given in words; binding and its absence hold for the method and conditions named. Some entries that bind do so weakly or less than the wild type.

The chains behind the UniProt entries cited, without tags or fusion partners. Where a name states a change or a piece, a line headed by the entry shows the natural chain unless it says otherwise. A line that says so, or that is headed by a name, gives the form on record, which may keep a tag or linker.
mesothelin (MSLN) (Q13421, form named): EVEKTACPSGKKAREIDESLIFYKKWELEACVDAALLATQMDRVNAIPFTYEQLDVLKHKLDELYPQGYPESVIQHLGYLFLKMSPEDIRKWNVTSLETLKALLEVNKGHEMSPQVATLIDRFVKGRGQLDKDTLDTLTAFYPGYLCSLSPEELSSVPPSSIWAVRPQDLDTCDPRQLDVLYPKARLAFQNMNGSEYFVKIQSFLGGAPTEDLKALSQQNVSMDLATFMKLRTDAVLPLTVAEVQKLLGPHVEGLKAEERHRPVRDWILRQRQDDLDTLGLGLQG

Biological target: mesothelin (MSLN) (UniProt Q13421)
Experiment: summary of the ELISA EC50 results

B1: CHS5 IgG (antibody, V domains shown)
VH: EVQLVESGGGLVQPGGSLRLSCAASGFTITDRTIHWVRQAPGKGLEWVASIFPTKGVTTYADSVKGRFTISADTSKNTAYLQMNSLRAEDTAVYYCARGRYWMDYWGQGTLVTVSS
VL: DIQMTQSPSSLSASVGDRVTITCRASQDVKEGVAWYQQKPGKAPKLLIDQSHRLYSGVPSRFSGSGSGTDFTLTISSLQPEDFATYYCQQYYAWPSTFGQGTKVEIKR
notes: also called IgG1-CHS5
B1 was tested, and the binding was “binds”.
